{"sequences": {"note": "Protein sequences, listed by entry. Tags and fused reporters are not part of them.", "UniProt P42224": "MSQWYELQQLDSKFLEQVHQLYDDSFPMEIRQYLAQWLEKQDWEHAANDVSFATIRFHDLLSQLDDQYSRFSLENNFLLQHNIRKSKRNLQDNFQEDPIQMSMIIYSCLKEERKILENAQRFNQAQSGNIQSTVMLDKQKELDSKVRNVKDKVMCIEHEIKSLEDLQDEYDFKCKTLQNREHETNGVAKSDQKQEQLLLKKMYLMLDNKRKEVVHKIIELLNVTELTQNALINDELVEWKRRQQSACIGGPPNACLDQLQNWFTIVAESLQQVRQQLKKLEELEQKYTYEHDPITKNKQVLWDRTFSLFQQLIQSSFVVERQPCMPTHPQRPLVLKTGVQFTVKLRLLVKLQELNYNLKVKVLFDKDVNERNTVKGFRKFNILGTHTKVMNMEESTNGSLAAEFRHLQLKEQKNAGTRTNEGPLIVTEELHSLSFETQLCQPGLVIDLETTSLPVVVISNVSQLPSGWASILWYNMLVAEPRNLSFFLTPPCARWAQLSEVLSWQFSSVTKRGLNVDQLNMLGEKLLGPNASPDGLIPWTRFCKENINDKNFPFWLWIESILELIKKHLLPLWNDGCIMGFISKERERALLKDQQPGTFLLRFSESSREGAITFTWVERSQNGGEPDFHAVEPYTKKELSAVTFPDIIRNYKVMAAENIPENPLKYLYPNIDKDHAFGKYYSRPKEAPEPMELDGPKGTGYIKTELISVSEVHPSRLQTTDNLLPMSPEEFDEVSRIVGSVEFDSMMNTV"}, "source": "paper PMC6692130", "about": "“PHLPP1 counter-regulates STAT1-mediated inflammatory signaling” (eLife, 2019)", "experiment_in_all_cases": "co-IP; HEK-293T cells transfected with HA-tagged PHLPP1 constructs and GFP-STAT1; detergent-solubilized lysates incubated with anti-HA antibody at 4°C overnight, protein A/G agarose 1 hr at 4°C, washed three times in lysis buffer with 0.3 M NaCl and 0.1% Triton X 100; blot probed with GFP antibody; GFP-STAT1 IP divided by HA IP, normalized to HA-NTE IP, three independent experiments", "key": {"[1]": {"target": "T1, HA-tagged PHLPP1 N-terminal extension (PHLPP1 NTE), residues 1-512 (UniProt O60346)", "T1 sequence": "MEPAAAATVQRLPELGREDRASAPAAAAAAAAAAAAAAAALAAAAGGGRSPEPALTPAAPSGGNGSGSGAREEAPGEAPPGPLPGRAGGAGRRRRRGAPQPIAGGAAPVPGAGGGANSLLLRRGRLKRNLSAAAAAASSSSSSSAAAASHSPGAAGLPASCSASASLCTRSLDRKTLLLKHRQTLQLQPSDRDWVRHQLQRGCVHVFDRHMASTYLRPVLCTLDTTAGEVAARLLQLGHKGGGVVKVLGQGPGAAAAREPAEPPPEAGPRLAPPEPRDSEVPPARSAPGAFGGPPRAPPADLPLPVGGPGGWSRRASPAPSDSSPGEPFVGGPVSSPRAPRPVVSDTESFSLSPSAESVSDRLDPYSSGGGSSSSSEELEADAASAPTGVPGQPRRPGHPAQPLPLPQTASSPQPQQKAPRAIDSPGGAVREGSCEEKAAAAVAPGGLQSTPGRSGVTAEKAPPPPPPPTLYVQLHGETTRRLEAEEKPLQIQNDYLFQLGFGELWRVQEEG"}, "[2]": {"target": "T2, PHLPP1 with the NTE deleted (HA-PHLPP1 ΔNTE), residues 513-1717 (UniProt O60346)", "T2 sequence": "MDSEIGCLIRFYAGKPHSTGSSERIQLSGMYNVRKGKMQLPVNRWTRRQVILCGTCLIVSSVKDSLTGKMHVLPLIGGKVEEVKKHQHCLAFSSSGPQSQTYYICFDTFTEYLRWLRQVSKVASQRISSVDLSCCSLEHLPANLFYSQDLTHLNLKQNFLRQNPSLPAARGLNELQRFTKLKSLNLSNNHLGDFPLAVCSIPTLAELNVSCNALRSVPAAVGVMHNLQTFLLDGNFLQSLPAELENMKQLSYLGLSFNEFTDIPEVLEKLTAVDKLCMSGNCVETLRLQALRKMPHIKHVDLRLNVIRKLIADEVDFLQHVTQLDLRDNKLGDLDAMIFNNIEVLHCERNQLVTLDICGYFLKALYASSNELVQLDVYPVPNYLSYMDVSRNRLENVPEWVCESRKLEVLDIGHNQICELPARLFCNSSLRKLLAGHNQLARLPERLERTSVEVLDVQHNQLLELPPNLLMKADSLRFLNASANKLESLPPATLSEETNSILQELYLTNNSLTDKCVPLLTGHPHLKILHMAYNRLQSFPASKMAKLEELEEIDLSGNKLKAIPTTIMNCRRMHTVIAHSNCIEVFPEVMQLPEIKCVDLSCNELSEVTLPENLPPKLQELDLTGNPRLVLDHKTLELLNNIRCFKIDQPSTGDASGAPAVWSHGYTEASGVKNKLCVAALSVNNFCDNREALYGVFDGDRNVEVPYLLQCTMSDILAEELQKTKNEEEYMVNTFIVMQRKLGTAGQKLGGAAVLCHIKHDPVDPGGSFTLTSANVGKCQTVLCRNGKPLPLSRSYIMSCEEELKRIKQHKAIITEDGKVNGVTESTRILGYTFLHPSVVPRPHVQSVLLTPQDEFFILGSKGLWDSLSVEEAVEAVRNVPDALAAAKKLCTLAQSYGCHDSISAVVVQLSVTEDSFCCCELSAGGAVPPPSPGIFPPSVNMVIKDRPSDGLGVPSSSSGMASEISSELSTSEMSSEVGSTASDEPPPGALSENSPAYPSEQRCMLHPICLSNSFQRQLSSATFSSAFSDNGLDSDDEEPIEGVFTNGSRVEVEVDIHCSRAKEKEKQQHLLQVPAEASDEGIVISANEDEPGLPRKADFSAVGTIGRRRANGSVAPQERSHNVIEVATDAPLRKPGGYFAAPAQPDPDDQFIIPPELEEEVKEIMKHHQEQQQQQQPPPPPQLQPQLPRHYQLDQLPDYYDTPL"}, "[3]": {"target": "HA-tagged full-length PHLPP1 (UniProt O60346)"}}, "note": "No constants are given. Whether binding was seen depends on the method and setting. In cells and extracts the contact can be indirect. Some entries that bind do so weakly or less than the wild type. For part of these data: Where a sequence is shown, tags or fusion partners need not be part of it."}
{"substance": "GFP-STAT1 (from UniProt P42224 1-750)", "values": [{"measurement": "binding", "setting": "[1]", "value": "binds"}, {"measurement": "binding", "setting": "[2]", "value": "binds weakly"}, {"measurement": "binding", "setting": "[3]", "value": "binds"}]}
